“And” between values parts separate entries of the source, which are not always exact repeats. Equal entries are not always repeated. Part of at least one peptide drawing is inferred or uncertain, most often the ends. Ends that are not written are not given here.
Tests used:
PBL [1] = assay: Lymphocyte proliferation assay (3H-thymidine incorporation, stimulation index); format: cell-based, Mensch; conditions: for Proliferation (PBL): HLA-B27^--Kontrollpersonen; for signifikante PBL-Proliferation (SI ≥ 2,5), responders/tested / SI (Stimulationsindex) of responders / geringfügige PBL-Proliferation, responders/tested: peptide 10 µg/ml
[2] = tested on: Rattenmodell für experimentelle Autoimmun-Uveitis (EAU); conditions: shown earlier (WO 95/29194; Wildner & Thurau 1994); cited from earlier work
Ratten = assay: Immunisation experiments with peptides in rats (swollen finger joints); format: in vivo; conditions: immunisation of rats; cases affected out of four; comparable to Psoriasisarthritis
PBL [3] = assay: Dose-response curve for peptide B27PA* (3H-TdR incorporation in PBL of patient AS1); format: cell-based, Mensch; conditions: for cpm ± Standardabweichung: PBL of patient AS1
[4] = tested on: IFN-γ sezernierenden T-Zellen unter den PBL; assay: ELISPOT assay for IFN-γ secreting T cells among PBL; format: cell-based, Mensch
[5] = tested on: B27PA*-spezifische T-Zellinien; assay: Proliferation assay of B27PA*-specific T cell lines with MAb blocking; format: cell-based, Mensch; conditions: Tag 20
[6] = tested on: Peptid-stimulierte T-Zellinien; assay: Phenotypic analysis (FACS) of peptide-stimulated T cell lines; format: cell-based, Mensch; conditions: for CD4 (%) / CD8(%) / TCR-αβ(%) / TCR-γδ(%): % of all CD3-positive T cells
[7] = andere HLA-B27-assoziierte Spondylarthropathien
[8] = gesunde HLA-B27^--Kontrollpersonen

ALNEDLSSWTAADT [B27PD, reference compound]
Proliferation (PBL) (PBL [1]): keine oder nur geringfügige Proliferation
uveitogen im Rattenmodell für EAU [2]: uveitogen

LDLDSIIAEVKAQYEEIANRS [Ker333]
geschwollene Fingergelenke bei den Tieren (Ratten): zwei von vier

WDRETQICKAKAQ [B27PA*]
SI (PBL-Proliferation) (PBL [1]; AS-Patient AS1): 17,5
SI (PBL-Proliferation) (PBL [1]; AS-Patient AS2 (non-responder)): 1
SI (PBL-Proliferation) (PBL [1]; AS-Patient AS3): 15,4
Proliferation (PBL) (PBL [1]): keine oder nur geringfügige Proliferation
Reaktion der Lymphozyten (Zellvermehrung mittels Einbau von ^3H-Thymidin) (PBL [1]; PBL of patients with Morbus Bechterew, in contrast to healthy donors, compared with comparison peptide B27PD): deutlich stärker
signifikante PBL-Proliferation (SI ≥ 2,5), responders/tested (PBL [1]; Patienten mit AS (HLA-B27^+)): 17/55
SI (Stimulationsindex) of responders (PBL [1]; [7]): 2,5
geringfügige PBL-Proliferation, responders/tested (PBL [1]; [7]): 2/28
signifikante PBL-Proliferation (SI ≥ 2,5), responders/tested (PBL [1]; gesunde HLA-B27^+-Blutspender): 3/30
SI (Stimulationsindex) of responders (PBL [1]; [8]): 2,5
geringfügige PBL-Proliferation, responders/tested (PBL [1]; [8]): 2/22
SI (PBL-Proliferationsantwort) (PBL [1]; gesunder HLA-B27^+-Blutspender H1): 9,8
B27PA*-spezifische Reaktion der PBL, dose dependence (PBL [3]; PBL of a responding AS patient): dosisabhängig
Endkonzentration at which the reaction reaches its Maximum (PBL [3]; PBL of a responding AS patient, in Kulturmedium): 10 µg/mL
cpm ± Standardabweichung (PBL [3]; Peptid-Endkonzentration 0,1 µg/ml): 218 ± 25 cpm
cpm ± Standardabweichung (PBL [3]; Peptid-Endkonzentration 1,0 µg/ml): 565 ± 47 cpm
cpm ± Standardabweichung (PBL [3]; Peptid-Endkonzentration 5,0 µg/ml): 1576 ± 70 cpm
cpm ± Standardabweichung (PBL [3]; Peptid-Endkonzentration 7,5 µg/ml): 2492 ± 72 cpm
cpm ± Standardabweichung (PBL [3]; Peptid-Endkonzentration 10,0 µg/ml): 2718 ± 76 cpm
cpm ± Standardabweichung (PBL [3]; Peptid-Endkonzentration 20,0 µg/ml): 2695 ± 88 cpm
cpm ± Standardabweichung (PBL [3]; Peptid-Endkonzentration 50,0 µg/ml): 2733 ± 84 cpm
spezifische IFN-γ-Produktion durch stimulierte T-Zellen ([4]; Spender AS1 (AS patient responding to the peptide)): 8 von 10^5 PBL
spezifische IFN-γ-Produktion durch stimulierte T-Zellen ([4]; Spender AS2 (non-responding AS patient)): 1 von 10^5 PBL
Proliferation der T-Zellinie in Reaktion auf das Peptid ([5]; Kontrollinie B27PA*-AS2): dies nicht tat
Proliferation der T-Zellinien in Reaktion auf das Peptid ([5]; Linien B27PA*-AS1, B27PA*-AS3 und B27PA*-H1): proliferierten
CD4 (%) ([6]; Spender AS1, Tag 8): 52,9%
CD8(%) ([6]; Spender AS1, Tag 8): 28,2%
TCR-αβ(%) ([6]; Spender AS1, Tag 8): 84,9%
TCR-γδ(%) ([6]; Spender AS1, Tag 8): 13,7%
CD4 (%) ([6]; Spender AS1, Tag 20): 45,1%
CD8(%) ([6]; Spender AS1, Tag 20): 30,5%
TCR-αβ(%) ([6]; Spender AS1, Tag 20): 73,6%
TCR-γδ(%) ([6]; Spender AS1, Tag 20): 25,5%
CD4 (%) ([6]; Spender AS2, Tag 8): 68,6%
CD8(%) ([6]; Spender AS2, Tag 8): 24,0%
TCR-αβ(%) ([6]; Spender AS2, Tag 8): 92,3%
TCR-γδ(%) ([6]; Spender AS2, Tag 8): 7,2%
CD4 (%) ([6]; Spender AS2, Tag 20): 70,2%
CD8(%) ([6]; Spender AS2, Tag 20): 21,4%
TCR-αβ(%) ([6]; Spender AS2, Tag 20): 91,9%
TCR-γδ(%) ([6]; Spender AS2, Tag 20): 7,4% and 7,8%
CD4 (%) ([6]; Spender AS3, Tag 8): 63,5%
CD8(%) ([6]; Spender AS3, Tag 8): 21,3%
TCR-αβ(%) ([6]; Spender AS3, Tag 8): 83,6%
TCR-γδ(%) ([6]; Spender AS3, Tag 8): 15,5%
CD4 (%) ([6]; Spender AS3, Tag 20): 34,4%
CD8(%) ([6]; Spender AS3, Tag 20): 25,6%
TCR-αβ(%) ([6]; Spender AS3, Tag 20): 59,2%
TCR-γδ(%) ([6]; Spender AS3, Tag 20): 30,4%
CD4 (%) ([6]; Spender H1, Tag 8): 58,4%
CD8(%) ([6]; Spender H1, Tag 8): 26,5%
TCR-αβ(%) ([6]; Spender H1, Tag 8): 85,2%
TCR-γδ(%) ([6]; Spender H1, Tag 8): 14,0%
CD4 (%) ([6]; Spender H1, Tag 20): 34,9%
CD8(%) ([6]; Spender H1, Tag 20): 31,5%
TCR-αβ(%) ([6]; Spender H1, Tag 20): 67,1%
TCR-γδ(%) ([6]; Spender H1, Tag 20): 32,7%
Expansion von γδ-TCR^+-Lymphozyten ([6]; lines B27PA*-AS1, B27PA*-AS3, B27PA*-H1, Tage 8 und 20, compared with unstimulated PBL (Tag 0) or PBL lines stimulated with rIL-2 only): bedeutende Expansion
geschwollene Fingergelenke bei den Tieren (Ratten): einem von vier

From patent EP0950065B1, “PEPTIDE AS DIAGNOSTIC AND THERAPEUTIC AGENT FOR AUTOIMMUNE DISEASES” (Wildner, Gerhild, priority 1996, dated 2003)
